Measurements reported in PubChem BioAssay AID504774 (Drosophila RNAi Screening Center, 2011).
In all, the deposit lists about 23,000 reagents; shown is an unselected part of those with a known target gene and a result. 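Values are quantile-normalised luminescence on an arbitrary scale; higher means more cells surviving MMS.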 Names joined by + are all predicted targets of the reagent.

Test: 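Knock-downs that shift viability of MMS-exposed cells relative to untreated ones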 (primary screen)
Cell system: Drosophila Kc167 cells
Knock-down reagent: long dsRNA against Drosophila genes, about 0.25 µg dsRNA per well
Time to read-out: about 6 days: 3 days knock-down, then 3 days with or without MMS
Challenge: methyl methanesulphonate 0.004% (w/v) for 3 days after knock-down
Read-out: 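ATP-dependent luminescence as a measure of live cells in MMS-exposed wells, quantile normalised within each plate, with replicate values also given as a mean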
Direction: mean viability with MMS and viability with MMS: higher = more surviving cells after MMS

target gene | amplicon | mean viability with MMS | viability with MMS, replicate 1 | viability with MMS, replicate 2
Fmr1 (Fragile X messenger ribonucleoprotein 1) | DRSC16674 | 3.56e6 | 4.08e6 | 3.99e6
ND1 (retired record) | DRSC21273 | 3.45e6 | 3.89e6 | 3.94e6
sqd (squid) | DRSC15160 | 3.39e6 | 3.57e6 | 4.08e6
sqd (squid) | DRSC17066 | 1.58e6 | 3.72e6 | 3.76e6
robl (roadblock) | DRSC07674 | 3.51e6 | 4.04e6 | 3.91e6
CG34337 | DRSC18435 | 3.49e6 | 4.01e6 | 3.92e6
CG10561 | DRSC02068 | 3.58e6 | 4.02e6 | 4.12e6
fest (wurstfest) | DRSC07349 | 3.43e6 | 3.93e6 | 3.82e6
CG12107 | DRSC06102 | 3.48e6 | 4.06e6 | 3.80e6
CaBP1 (calcium-binding protein 1) | DRSC01984 | 3.66e6 | 4.16e6 | 4.20e6
CG12637 | DRSC17845 | 3.56e6 | 4.07e6 | 4.00e6
mRpL4 (mitochondrial ribosomal protein L4) | DRSC03562 | 3.56e6 | 4.21e6 | 3.88e6
Lkb1 (Lkb1 kinase) | DRSC16481 | 3.48e6 | 3.95e6 | 3.92e6
CG13096 | DRSC02198 | 3.42e6 | 3.91e6 | 3.83e6
Irp-1A (Iron regulatory protein 1A) | DRSC16719 | 3.60e6 | 4.08e6 | 4.07e6
CG32700 | DRSC17857 | 3.62e6 | 3.58e6 | 4.60e6
CG32700 | DRSC17858 | 3.42e6 | 3.89e6 | 3.89e6
Unc-76 (Uncoordinated 76) | DRSC18193 | 3.50e6 | 4.04e6 | 3.92e6
Unc-76 (Uncoordinated 76) | DRSC18560 | 3.63e6 | 4.18e6 | 4.05e6
Obp56c (Odorant-binding protein 56c) | DRSC06552 | 3.67e6 | 3.81e6 | 3.87e6
Obp56c (Odorant-binding protein 56c) | DRSC22325 | 3.52e6 | 4.00e6 | 3.97e6
eRF3 (eukaryotic translation release factor 3) | DRSC03322 | 3.36e6 | 3.82e6 | 3.77e6
CG11298 | DRSC04100 | 3.24e6 | 3.70e6 | 3.53e6
gsb-n (gooseberry-neuro) | DRSC04021 | 3.53e6 | 4.02e6 | 3.98e6
gsb-n (gooseberry-neuro) | DRSC04693 | 3.59e6 | 4.02e6 | 4.13e6
Rsph1 (Radial spoke head protein 1) | DRSC02864 | 3.44e6 | 3.92e6 | 3.88e6
AOX1 (Aldehyde oxidase 1) | DRSC15339 | 3.23e6 | 3.79e6 | 3.62e6
CG15784 | DRSC18090 | 3.59e6 | 3.91e6 | 4.24e6
CG32507 | DRSC20421 | 3.51e6 | 3.94e6 | 4.04e6
ppk14 (pickpocket 14) | DRSC03238 | 3.48e6 | 3.96e6 | 3.94e6
Btk (Bruton tyrosine kinase) | DRSC02008 | 3.53e6 | 4.00e6 | 4.03e6
Btk (Bruton tyrosine kinase) | DRSC02666 | 3.66e6 | 4.40e6 | 3.94e6
Btk (Bruton tyrosine kinase) | DRSC22427 | 3.68e6 | 4.13e6 | 4.11e6
Met (Methoprene-tolerant) | DRSC20284 | 3.53e6 | 4.00e6 | 3.98e6
CG13113 | DRSC02211 | 3.56e6 | 3.92e6 | 4.17e6
CG13443 | DRSC06403 | 3.67e6 | 4.17e6 | 4.10e6
He + NimB5 | DRSC22876 | 3.42e6 | 3.91e6 | 3.93e6
CG3650 | DRSC04401 | 3.31e6 | 3.65e6 | 3.71e6
CG30487 | DRSC05377 | 3.61e6 | 4.13e6 | 4.01e6
IntS6 (Integrator 6) | DRSC18281 | 3.38e6 | 3.34e6 | 4.09e6
CG5849 | DRSC15893 | 3.69e6 | 4.05e6 | 4.31e6
Bub3 | DRSC14168 | 3.40e6 | 3.87e6 | 3.87e6
bc10 | DRSC11326 | 3.60e6 | 4.06e6 | 4.11e6
CG12818 | DRSC14556 | 3.61e6 | 4.07e6 | 4.06e6
CG17026 | DRSC10237 | 3.76e6 | 3.90e6 | 3.89e6
CG17321 | DRSC02598 | 3.71e6 | 4.15e6 | 4.20e6
rsh (radish) | DRSC18966 | 3.47e6 | 3.94e6 | 3.95e6
rsh (radish) | DRSC19816 | 2.83e6 | 3.60e6 | 3.60e6
CG30096 | DRSC21744 | 3.32e6 | 3.81e6 | 3.85e6
CG10344 | DRSC04066 | 3.51e6 | 4.03e6 | 3.91e6
E(spl)m3-HLH (Enhancer of split m3, helix-loop-helix) | DRSC16694 | 3.08e6 | 3.62e6 | 3.65e6
E(spl)m3-HLH (Enhancer of split m3, helix-loop-helix) | DRSC23160 | 3.08e6 | 3.49e6 | 3.37e6
Hayan | DRSC19989 | 3.70e6 | 4.04e6 | 4.10e6
Hayan | DRSC22231 | 3.27e6 | 3.79e6 | 3.85e6
CG31103 | DRSC22324 | 3.46e6 | 3.95e6 | 3.93e6
Nthl1 (Nth-like DNA glycosylase 1) | DRSC03183 | 3.46e6 | 3.93e6 | 3.91e6
Got1 (Glutamate oxaloacetate transaminase 1) | DRSC07177 | 3.57e6 | 3.92e6 | 4.18e6
CG9517 (retired record) | DRSC20192 | 3.68e6 | 4.16e6 | 4.12e6
CG9517 (retired record) | DRSC20193 | 3.50e6 | 4.01e6 | 3.92e6
CG30289 | DRSC03870 | 3.42e6 | 3.94e6 | 3.85e6
CG4000 | DRSC15535 | 3.73e6 | 4.25e6 | 4.10e6
CG4000 | DRSC21547 | 3.59e6 | 4.09e6 | 4.04e6
CG7362 | DRSC16236 | 3.80e6 | 4.04e6 | 4.10e6
Hasp (Hig-anchoring scaffold protein) | DRSC02022 | 3.66e6 | 3.93e6 | 4.43e6
Nost (Nostrin) | DRSC18037 | 3.25e6 | 3.55e6 | 3.74e6
Nost (Nostrin) | DRSC18338 | 3.33e6 | 3.78e6 | 3.76e6
CG31058 (retired record) | DRSC15840 | 3.19e6 | 3.57e6 | 3.59e6
CG31058 (retired record) | DRSC22987 | 3.56e6 | 4.08e6 | 4.02e6

10 of these entries in another layout.
Btk (Bruton tyrosine kinase) [DRSC02008]
- mean viability with MMS: 3.53e6
- viability with MMS, replicate 1: 4.00e6
- viability with MMS, replicate 2: 4.03e6

Btk (Bruton tyrosine kinase) [DRSC02666]
- mean viability with MMS: 3.66e6
- viability with MMS, replicate 1: 4.40e6
- viability with MMS, replicate 2: 3.94e6

Btk (Bruton tyrosine kinase) [DRSC22427]
- mean viability with MMS: 3.68e6
- viability with MMS, replicate 1: 4.13e6
- viability with MMS, replicate 2: 4.11e6

Met (Methoprene-tolerant) [DRSC20284]
- mean viability with MMS: 3.53e6
- viability with MMS, replicate 1: 4.00e6
- viability with MMS, replicate 2: 3.98e6

CG13113 [DRSC02211]
- mean viability with MMS: 3.56e6
- viability with MMS, replicate 1: 3.92e6
- viability with MMS, replicate 2: 4.17e6

CG13443 [DRSC06403]
- mean viability with MMS: 3.67e6
- viability with MMS, replicate 1: 4.17e6
- viability with MMS, replicate 2: 4.10e6

He + NimB5 [DRSC22876]
- mean viability with MMS: 3.42e6
- viability with MMS, replicate 1: 3.91e6
- viability with MMS, replicate 2: 3.93e6

CG3650 [DRSC04401]
- mean viability with MMS: 3.31e6
- viability with MMS, replicate 1: 3.65e6
- viability with MMS, replicate 2: 3.71e6

CG30487 [DRSC05377]
- mean viability with MMS: 3.61e6
- viability with MMS, replicate 1: 4.13e6
- viability with MMS, replicate 2: 4.01e6

IntS6 (Integrator 6) [DRSC18281]
- mean viability with MMS: 3.38e6
- viability with MMS, replicate 1: 3.34e6
- viability with MMS, replicate 2: 4.09e6
